From the supplement of paper PMC12823440, “Inhibitors supercharge kinase turnover through native proteolytic circuits” (Nature, 2025)
This is one part of the list. Hit calls seldom repeat between salt and free forms of one compound.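 Kinases were expressed as nanoluciferase fusions in K562 cells and luminescence was read every 4 h between 2 and 18 h as percent of control, DMSO set to 100% and a positive control to 0%. A time point counts as decreased when the signal drops significantly (2 sigma). The hit call is the authors' own, does not follow from the count of time points alone, and its rule is not shown.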

The chains behind the UniProt entries cited, without tags or fusion partners. Where a name states a change or a piece, a line headed by the entry shows the natural chain unless it says otherwise.
UniProt P10398: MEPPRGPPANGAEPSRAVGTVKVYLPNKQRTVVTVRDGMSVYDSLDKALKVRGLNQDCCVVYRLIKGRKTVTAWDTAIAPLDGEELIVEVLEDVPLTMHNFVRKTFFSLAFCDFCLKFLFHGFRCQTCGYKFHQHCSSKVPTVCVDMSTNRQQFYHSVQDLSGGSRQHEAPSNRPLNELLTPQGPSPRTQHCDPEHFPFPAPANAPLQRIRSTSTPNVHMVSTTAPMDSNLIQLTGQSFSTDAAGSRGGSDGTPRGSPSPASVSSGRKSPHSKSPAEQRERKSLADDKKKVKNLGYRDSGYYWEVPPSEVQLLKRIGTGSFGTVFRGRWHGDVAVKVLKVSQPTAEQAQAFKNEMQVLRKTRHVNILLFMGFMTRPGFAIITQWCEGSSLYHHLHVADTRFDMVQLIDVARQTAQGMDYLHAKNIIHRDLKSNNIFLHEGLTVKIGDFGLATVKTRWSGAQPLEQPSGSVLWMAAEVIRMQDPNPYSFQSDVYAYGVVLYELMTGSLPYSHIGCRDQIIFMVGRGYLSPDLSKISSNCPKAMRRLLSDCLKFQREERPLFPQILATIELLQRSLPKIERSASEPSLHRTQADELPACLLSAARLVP
UniProt P53667: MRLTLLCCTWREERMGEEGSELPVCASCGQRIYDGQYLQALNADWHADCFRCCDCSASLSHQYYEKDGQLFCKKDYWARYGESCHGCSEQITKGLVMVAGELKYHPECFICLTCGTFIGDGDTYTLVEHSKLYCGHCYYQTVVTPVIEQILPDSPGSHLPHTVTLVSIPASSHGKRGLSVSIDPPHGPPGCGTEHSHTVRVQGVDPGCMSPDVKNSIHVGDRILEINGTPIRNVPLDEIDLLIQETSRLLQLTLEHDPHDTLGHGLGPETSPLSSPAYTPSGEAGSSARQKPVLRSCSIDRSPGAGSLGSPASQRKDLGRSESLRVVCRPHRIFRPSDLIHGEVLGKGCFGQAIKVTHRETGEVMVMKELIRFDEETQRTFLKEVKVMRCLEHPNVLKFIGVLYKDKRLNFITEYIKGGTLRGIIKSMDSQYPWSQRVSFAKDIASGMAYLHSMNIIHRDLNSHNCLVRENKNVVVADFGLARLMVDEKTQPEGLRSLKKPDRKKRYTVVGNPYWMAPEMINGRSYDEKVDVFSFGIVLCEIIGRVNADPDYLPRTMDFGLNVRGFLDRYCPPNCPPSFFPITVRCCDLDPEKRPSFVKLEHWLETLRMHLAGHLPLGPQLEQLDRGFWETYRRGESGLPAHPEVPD
UniProt Q96KB5: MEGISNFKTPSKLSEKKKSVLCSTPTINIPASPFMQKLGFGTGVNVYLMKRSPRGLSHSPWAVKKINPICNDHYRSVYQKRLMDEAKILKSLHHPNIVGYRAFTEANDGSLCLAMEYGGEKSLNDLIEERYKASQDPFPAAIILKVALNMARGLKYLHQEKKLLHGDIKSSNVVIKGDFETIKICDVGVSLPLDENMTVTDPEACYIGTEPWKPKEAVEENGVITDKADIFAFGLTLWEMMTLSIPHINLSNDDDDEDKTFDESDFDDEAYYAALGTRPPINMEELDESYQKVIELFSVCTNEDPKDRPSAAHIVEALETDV
UniProt Q13555: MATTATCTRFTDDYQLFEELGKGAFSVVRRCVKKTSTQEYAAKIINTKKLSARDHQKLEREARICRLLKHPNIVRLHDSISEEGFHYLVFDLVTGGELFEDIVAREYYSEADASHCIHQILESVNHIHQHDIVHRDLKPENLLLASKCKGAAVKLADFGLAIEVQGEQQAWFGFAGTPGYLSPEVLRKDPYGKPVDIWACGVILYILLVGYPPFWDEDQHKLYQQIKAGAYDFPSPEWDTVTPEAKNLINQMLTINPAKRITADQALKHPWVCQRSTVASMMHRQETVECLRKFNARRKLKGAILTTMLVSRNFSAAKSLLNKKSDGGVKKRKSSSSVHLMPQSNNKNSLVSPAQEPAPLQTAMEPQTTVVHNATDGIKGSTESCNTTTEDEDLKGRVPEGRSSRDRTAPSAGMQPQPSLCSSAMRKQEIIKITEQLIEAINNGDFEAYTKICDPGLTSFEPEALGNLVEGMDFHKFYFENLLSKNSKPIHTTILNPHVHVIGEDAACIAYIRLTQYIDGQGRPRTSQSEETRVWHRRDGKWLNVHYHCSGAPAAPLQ
UniProt P07949, whole entry M918T, looked up: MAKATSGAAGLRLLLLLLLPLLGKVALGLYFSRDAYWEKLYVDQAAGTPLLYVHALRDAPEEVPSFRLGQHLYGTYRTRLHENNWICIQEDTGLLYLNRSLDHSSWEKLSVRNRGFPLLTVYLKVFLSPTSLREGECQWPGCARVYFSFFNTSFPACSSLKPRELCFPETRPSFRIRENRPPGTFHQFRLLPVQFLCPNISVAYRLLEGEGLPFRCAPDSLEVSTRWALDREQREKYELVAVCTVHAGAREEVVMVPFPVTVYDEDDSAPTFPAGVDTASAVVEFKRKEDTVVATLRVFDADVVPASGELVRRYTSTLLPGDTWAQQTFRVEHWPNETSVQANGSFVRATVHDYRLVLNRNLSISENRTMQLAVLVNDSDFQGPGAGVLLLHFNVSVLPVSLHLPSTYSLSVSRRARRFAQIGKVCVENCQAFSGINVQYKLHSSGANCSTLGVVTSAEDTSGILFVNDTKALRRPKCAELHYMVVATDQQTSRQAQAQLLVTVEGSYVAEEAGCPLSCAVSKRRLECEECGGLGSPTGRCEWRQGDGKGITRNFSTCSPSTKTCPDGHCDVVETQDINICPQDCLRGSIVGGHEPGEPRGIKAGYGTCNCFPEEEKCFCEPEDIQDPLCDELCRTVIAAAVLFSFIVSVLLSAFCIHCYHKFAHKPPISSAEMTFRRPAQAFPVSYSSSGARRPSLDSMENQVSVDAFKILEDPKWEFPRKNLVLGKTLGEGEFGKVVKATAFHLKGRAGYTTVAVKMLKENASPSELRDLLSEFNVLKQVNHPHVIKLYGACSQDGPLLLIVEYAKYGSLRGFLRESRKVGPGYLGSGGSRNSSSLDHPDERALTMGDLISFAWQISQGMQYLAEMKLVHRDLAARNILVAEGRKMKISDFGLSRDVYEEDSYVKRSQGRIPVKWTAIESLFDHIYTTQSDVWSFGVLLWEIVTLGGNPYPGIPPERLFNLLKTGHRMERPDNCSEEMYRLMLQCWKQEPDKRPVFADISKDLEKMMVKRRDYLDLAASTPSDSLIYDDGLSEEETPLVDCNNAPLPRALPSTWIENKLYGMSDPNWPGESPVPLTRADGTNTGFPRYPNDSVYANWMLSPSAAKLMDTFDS
UniProt Q9UQM7, whole entry: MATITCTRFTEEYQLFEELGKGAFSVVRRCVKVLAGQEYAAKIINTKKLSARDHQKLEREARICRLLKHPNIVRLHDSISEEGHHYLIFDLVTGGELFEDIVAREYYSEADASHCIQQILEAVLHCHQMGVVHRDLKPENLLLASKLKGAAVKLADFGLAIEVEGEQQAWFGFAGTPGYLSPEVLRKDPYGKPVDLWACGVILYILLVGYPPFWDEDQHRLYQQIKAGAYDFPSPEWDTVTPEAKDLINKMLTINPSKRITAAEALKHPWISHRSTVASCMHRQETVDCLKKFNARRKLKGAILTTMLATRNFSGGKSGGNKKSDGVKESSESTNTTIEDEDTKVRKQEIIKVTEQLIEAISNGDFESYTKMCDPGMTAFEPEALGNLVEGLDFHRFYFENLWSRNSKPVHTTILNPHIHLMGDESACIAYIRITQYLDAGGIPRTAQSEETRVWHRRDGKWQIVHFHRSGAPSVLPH
UniProt P21802, whole entry, looked up: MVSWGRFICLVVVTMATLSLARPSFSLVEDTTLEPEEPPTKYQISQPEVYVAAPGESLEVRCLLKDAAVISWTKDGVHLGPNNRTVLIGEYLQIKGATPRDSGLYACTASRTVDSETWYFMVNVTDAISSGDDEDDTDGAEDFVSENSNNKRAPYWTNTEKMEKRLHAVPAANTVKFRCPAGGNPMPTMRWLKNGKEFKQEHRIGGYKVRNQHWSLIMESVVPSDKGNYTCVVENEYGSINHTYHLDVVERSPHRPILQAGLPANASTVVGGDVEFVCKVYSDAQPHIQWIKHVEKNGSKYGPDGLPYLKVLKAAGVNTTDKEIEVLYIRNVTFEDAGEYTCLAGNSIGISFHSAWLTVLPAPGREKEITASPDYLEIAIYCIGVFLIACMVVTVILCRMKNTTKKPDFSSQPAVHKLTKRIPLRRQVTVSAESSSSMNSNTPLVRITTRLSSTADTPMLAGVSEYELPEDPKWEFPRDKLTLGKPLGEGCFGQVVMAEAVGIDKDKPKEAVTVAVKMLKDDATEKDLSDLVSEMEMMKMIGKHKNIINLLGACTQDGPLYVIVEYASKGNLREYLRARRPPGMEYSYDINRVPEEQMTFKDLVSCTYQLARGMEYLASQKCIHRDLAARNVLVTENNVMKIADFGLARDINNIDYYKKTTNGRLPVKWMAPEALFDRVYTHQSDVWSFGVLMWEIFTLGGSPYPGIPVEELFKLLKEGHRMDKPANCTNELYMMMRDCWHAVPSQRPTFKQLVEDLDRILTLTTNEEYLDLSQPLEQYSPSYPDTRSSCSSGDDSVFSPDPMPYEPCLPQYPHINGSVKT
UniProt P53671: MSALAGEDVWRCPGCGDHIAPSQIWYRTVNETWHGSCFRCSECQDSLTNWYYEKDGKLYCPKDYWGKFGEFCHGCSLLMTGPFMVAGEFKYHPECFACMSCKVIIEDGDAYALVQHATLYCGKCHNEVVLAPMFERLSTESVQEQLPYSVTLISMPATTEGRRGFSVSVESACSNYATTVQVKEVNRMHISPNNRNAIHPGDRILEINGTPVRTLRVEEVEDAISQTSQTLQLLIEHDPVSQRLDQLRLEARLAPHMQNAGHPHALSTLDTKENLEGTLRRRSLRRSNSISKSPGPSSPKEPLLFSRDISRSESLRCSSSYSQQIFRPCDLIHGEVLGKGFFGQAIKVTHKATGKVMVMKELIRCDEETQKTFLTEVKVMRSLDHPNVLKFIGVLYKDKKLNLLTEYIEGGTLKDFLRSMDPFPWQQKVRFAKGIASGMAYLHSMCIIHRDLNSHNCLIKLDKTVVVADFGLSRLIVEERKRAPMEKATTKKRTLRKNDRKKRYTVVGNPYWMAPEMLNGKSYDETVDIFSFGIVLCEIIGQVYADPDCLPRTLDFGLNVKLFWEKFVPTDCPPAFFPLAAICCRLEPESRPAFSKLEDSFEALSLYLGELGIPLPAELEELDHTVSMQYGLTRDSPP
UniProt O96017, whole entry: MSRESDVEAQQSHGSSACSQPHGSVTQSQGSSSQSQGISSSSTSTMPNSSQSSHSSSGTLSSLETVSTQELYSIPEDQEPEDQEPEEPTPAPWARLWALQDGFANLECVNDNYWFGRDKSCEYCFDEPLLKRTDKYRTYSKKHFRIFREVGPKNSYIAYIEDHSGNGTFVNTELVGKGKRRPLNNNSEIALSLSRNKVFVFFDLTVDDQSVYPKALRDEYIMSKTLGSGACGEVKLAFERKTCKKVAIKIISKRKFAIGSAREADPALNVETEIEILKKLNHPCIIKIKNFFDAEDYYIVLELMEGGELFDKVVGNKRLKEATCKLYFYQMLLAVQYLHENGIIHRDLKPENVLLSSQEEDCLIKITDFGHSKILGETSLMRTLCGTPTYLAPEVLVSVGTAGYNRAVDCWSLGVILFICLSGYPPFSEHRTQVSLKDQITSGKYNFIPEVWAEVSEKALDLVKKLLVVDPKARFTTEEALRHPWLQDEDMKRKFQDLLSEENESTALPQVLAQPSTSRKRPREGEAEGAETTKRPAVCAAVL
UniProt Q16620, whole entry, looked up: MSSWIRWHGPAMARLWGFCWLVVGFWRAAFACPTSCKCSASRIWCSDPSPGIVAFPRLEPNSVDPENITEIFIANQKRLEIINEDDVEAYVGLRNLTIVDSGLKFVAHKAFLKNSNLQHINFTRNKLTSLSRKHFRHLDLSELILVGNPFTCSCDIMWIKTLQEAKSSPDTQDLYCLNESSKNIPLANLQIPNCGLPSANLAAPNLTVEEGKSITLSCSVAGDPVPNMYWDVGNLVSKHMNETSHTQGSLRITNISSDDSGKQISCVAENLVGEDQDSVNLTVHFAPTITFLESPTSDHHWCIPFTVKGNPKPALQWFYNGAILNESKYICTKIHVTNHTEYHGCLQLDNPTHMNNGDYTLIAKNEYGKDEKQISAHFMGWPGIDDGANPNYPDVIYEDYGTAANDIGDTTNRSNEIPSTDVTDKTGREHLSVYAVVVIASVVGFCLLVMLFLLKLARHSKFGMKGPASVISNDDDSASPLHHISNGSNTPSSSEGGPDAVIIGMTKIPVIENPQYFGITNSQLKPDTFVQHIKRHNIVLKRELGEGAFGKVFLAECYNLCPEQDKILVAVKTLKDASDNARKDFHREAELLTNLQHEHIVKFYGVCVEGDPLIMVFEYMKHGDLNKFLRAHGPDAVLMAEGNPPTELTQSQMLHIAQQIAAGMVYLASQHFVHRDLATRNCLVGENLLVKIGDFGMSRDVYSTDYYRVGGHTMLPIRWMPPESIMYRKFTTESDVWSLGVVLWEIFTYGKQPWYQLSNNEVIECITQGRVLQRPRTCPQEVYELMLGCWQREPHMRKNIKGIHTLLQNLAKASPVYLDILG

What was measured:
Assay in all cases: number of time points (of 5) at which kinase-Nluc abundance scored as decreased, DMSO-normalised (count); higher = more persistent destabilization
[1] = compound: Clc1ccc(C2(c3ccc(-c4cn[nH]c4)cc3)CCNCC2)cc1; conditions: 10 µM; K562; 2-18 h
[2] = compound: Cn1cc(-c2cnc3ccc4ccc(CS(=O)(=O)NCc5ccccn5)cc4c(=O)c3c2)cn1 [MK-8033 (hydrochloride)]; conditions: 10 µM; K562; 2-18 h
[3] = compound: Cn1cc(-c2cnc3ccc4ccc(CS(=O)(=O)NCc5ccccn5)cc4c(=O)c3c2)cn1; conditions: 10 µM; K562; 2-18 h
[4] = compound: Cn1ncc(Cl)c1-c1cc(C(=O)N[C@H](CN)Cc2cccc(F)c2)sc1Cl [Afuresertib (hydrochloride)]; conditions: 10 µM; K562; 2-18 h
[5] = compound: Cn1ncc(Cl)c1-c1cc(C(=O)N[C@H](CN)Cc2cccc(F)c2)sc1Cl [Afuresertib]; conditions: 10 µM; K562; 2-18 h
[6] = compound: FC(F)(F)c1ccc(CNc2ccc(Cc3c[nH]c4ncc(Cl)cc34)cn2)cn1 [Pexidartinib (hydrochloride)]; conditions: 10 µM; K562; 2-18 h
[7] = compound: FC(F)(F)c1ccc(CNc2ccc(Cc3c[nH]c4ncc(Cl)cc34)cn2)cn1 [Pexidartinib]; conditions: 10 µM; K562; 2-18 h
[8] = compound: N#CCC1(n2cc(-c3ncnc4[nH]ccc34)cn2)CN(C2CCN(C(=O)c3ccnc(C(F)(F)F)c3F)CC2)C1 [Itacitinib adipate]; conditions: 10 µM; K562; 2-18 h
[9] = compound: N#CCC1(n2cc(-c3ncnc4[nH]ccc34)cn2)CN(C2CCN(C(=O)c3ccnc(C(F)(F)F)c3F)CC2)C1 [Itacitinib]; conditions: 10 µM; K562; 2-18 h
[10] = compound: N#CCNC(=O)c1ccc(-c2ccnc(Nc3ccc(N4CCOCC4)cc3)n2)cc1 [Momelotinib sulfate]; conditions: 10 µM; K562; 2-18 h
[11] = compound: N#CCNC(=O)c1ccc(-c2ccnc(Nc3ccc(N4CCOCC4)cc3)n2)cc1 [Momelotinib]; conditions: 10 µM; K562; 2-18 h
[12] = compound: N#CC[C@H](C1CCCC1)n1cc(-c2ncnc3[nH]ccc23)cn1 [Ruxolitinib (phosphate)]; conditions: 10 µM; K562; 2-18 h
[13] = compound: N#CC[C@H](C1CCCC1)n1cc(-c2ncnc3[nH]ccc23)cn1 [Ruxolitinib]; conditions: 10 µM; K562; 2-18 h
[14] = compound: N=C(N)NC(=O)c1nc(Cl)c(N)nc1N [Amiloride (hydrochloride)]; conditions: 10 µM; K562; 2-18 h
[15] = compound: N=C(N)NC(=O)c1nc(Cl)c(N)nc1N [Amiloride hydrochloride dihydrate]; conditions: 10 µM; K562; 2-18 h
[16] = compound: Nc1cncc(-c2cn3ccnc3c(Nc3ccc(N4CCN(C5COC5)CC4)cc3)n2)n1 [Lanraplenib (succinate)]; conditions: 10 µM; K562; 2-18 h
[17] = compound: Nc1cncc(-c2cn3ccnc3c(Nc3ccc(N4CCN(C5COC5)CC4)cc3)n2)n1 [Lanraplenib]; conditions: 10 µM; K562; 2-18 h
[18] = compound: Nc1ncnc2c1c(-c1ccc(Oc3ccccc3)cc1)nn2[C@@H]1CCCNC1 [IBT6A (hydrochloride)]; conditions: 2.5 µM; K562; 2-18 h
[19] = compound: Nc1ncnc2c1c(-c1ccc(Oc3ccccc3)cc1)nn2[C@@H]1CCCNC1; conditions: 2.5 µM; K562; 2-18 h
[20] = compound: O=C(Nc1ccncc1)Nc1ccc(-c2nc(N3CCOCC3)nc(N3C4CCC3COC4)n2)cc1 [PKI-179 (hydrochloride)]; conditions: 2.5 µM; K562; 2-18 h

Measured: number of time points

ARAF (UniProt P10398)
1: [20]
0: all other assays above

LIMK1 (UniProt P53667)
4: [20]
3: [1]
0: all other assays above

PBK (UniProt Q96KB5)
0: all assays above

CAMK2G (UniProt Q13555)
3: [1] | [20]
0: all other assays above

PTK2B (UniProt Q14289)
1: [20]
2: [1]
0: all other assays above

RIPK2 (UniProt O43353)
1: [10] | [18]
3: [20]
0: all other assays above

RET_M918T (clone: RET_mut) (UniProt P07949)
4: [20]
not listed: [12] | [13]
0: all other assays above

CAMK2A (UniProt Q9UQM7)
0: all assays above

FGFR2 (UniProt P21802)
4: [20]
1: [1] | [19]
0: all other assays above

LIMK2 (UniProt P53671)
2: [1]
1: [4]
3: [20]
0: all other assays above

ALK (UniProt Q9UM73)
1: [20]
0: all other assays above

EGFR_L858R (UniProt P00533)
2: [1]
0: all other assays above

CHEK2 (UniProt O96017)
1: [20]
0: all other assays above

NTRK2 (UniProt Q16620)
1: [1]
4: [20]
not listed: [5]
0: all other assays above

BRAF_V600E
4: [20]
0: all other assays above
